Consider 1 substance from article PMC10814836.

By UniProt entry, the sequences of proteins in these tests, tags left out.
UniProt P17661: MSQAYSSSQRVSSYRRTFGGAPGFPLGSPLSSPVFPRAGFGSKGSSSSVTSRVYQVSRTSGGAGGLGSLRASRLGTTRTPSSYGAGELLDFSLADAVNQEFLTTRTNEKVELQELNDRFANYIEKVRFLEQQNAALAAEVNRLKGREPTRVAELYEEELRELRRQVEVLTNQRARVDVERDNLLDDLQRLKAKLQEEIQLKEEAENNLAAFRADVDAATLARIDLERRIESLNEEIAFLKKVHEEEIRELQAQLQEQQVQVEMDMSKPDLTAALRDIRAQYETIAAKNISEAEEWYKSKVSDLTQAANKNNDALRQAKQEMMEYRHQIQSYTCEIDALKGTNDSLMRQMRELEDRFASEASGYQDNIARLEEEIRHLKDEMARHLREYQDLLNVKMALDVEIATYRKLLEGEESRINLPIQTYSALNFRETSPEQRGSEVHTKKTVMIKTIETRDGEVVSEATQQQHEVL

These are yes or no findings as the source states them, for the method shown. In cells and extracts the contact can be indirect. Some entries that bind do so weakly or less than the wild type.

Assay [1] concerns the target lamin A/C (human (endogenous in primary myoblasts)) (UniProt P02545). Kind of assay: proximity ligation; in situ PLA (Duolink) on methanol-fixed human myoblasts after uniaxial cyclic stretching (10% strain, 1 Hz, 4 h); anti-lamin A/C with anti-desmin or anti-plectin 1; 100 nuclei counted per replicate.
Assay [2] has the same target. Kind of assay: co-IP; lysate of stretched human myoblasts (50 mM Tris-HCl pH 7.5, 150 mM NaCl, 0.1% SDS, 1% NP-40), 500 ug, precipitated with anti-lamin A/C (E1) overnight at 4 °C, protein A/G; Western blot. (In western blotting, separated proteins are transferred to a membrane and probed.)
Assay [3] has the same target. The assay is described as follows: proximity ligation; in situ PLA (Duolink) on methanol-fixed human myoblasts under basal (unstretched) conditions; anti-lamin A/C with anti-desmin or anti-plectin 1.

On to desmin (from UniProt P17661 1-470), for which the binding entry in assay [1] is listed as “binds”; in assay [2], “binds”; in assay [3] it was “binds weakly”.
